No constants are given. Whether binding was seen depends on the method and setting. Binding can be weak; no strength is given.
Tests used:
[1] = target: collagen sponge (Medtronic); assay: collagen sponge retention assay; IFBM premixed with BMP, sponge washed, retained BMP detected with anti-BMP antibody (FIG. 5)
[2] = target: collagen sponge (Medtronic); assay: collagen sponge retention assay, two-dimensional dose response of IFBM and BMP (FIG. 6A-6D)

Binder: DVNSIWMSRVIEWTYDSGSSGKSSSVDLYFPLKGDVVSR (C-terminal amide (-NH2)) [IFBM AFF7010 (0016-2012)]
- binding [1]: binds
- binding [2]: binds

Binder: DVNSIWMSRVIEWTYDSGSSGKSRSSDSAFSSFSALEGSVVSR (C-terminal amide (-NH2)) [IFBM AFF7008 (0016-2006)]
- binding [1]: binds

Binder: DVNSIWMSRVIEWTYDSGSSGKSSDWGVVASAWDAFEALDASR (C-terminal amide (-NH2)) [IFBM AFF7017 (0016-2011)]
- binding [1]: binds

Binder: SSFEPLRFPLKGVPVSRGSSGKDVNSIWMSRVIEWTYDS (C-terminal amide (-NH2)) [IFBM AFF7005 (2009-0016)]
- binding [2]: binds

Binder: DVNSIWMSRVIEWTYDSGSSGKSSFEPLRFPLKGVPVSR (C-terminal amide (-NH2)) [IFBM AFF7006 (0016-2009)]
- binding [2]: binds

Binder: SSSVDLYFPLKGDVVSRGSSGKDVNSIWMSRVIEWTYDS (C-terminal amide (-NH2)) [IFBM AFF7009 (2012-0016)]
- binding [2]: binds

— patent US20060051395A1 (AFFINERGY, published 2006)
